Data from article PMC2909763 (Chemistry & biology, 2009).

Test system: acetylated histone H3 in FRDA lymphoblast cell line
Assay: Histone H3 acetylation by western blot in FRDA lymphoblasts
Format: cell-based, human
Conditions: then washed

## O=C(CCCCCCC(=O)Nc1ccccc1)NO [SAHA, suberoylanilide hydroxamic acid, reference compound]
3 or 106 at 10 μM, SAHA at 2 μM, 24 h, 0 to 7 h
  hyperacetylation of histone H3 after inhibitor removal: disappeared rapidly
SAHA 2 μM for 24 h
  time for acetylation to return to no-inhibitor levels after removing inhibitor: ≤ 2 h
